Reference: PubChem BioAssay AID1259327 (Drosophila RNAi Screening Center, 2017)
Purpose: 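Baseline ATP after transmembrane-protein gene knock-down with water vehicle only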. System: Drosophila S2R+ cells. Reagent: long dsRNA against Drosophila genes. Time to read-out: 5 days (water added on day 4, read one day later). Challenge: water added as vehicle, no metal, one day before read-out. Read-out: 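Total ATP measured by luciferase light, scaled to plate mean, duplicates averaged, then z-scored across plates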. Direction: ATP z-score: higher = more total ATP than typical wells; ATP luminescence: higher = more total ATP. Active means: 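Called active when the ATP z-score exceeds 1.5 or falls below -1.5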. Calls: active = hit: ATP up or down; inactive = no clear ATP change.
The whole screen tested about 3,100 reagents; below is a random part of them. 378 of all reagents (12%) count as active. 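Hits include both directions; z-score sign shows ATP rise or fall; raw luminescence values are not plate-normalised.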 The record does not give: the amount of reagent.

| target | DRSC id | ATP z-score, duplicate mean | ATP luminescence, replicate 1 (RLU) | ATP luminescence, replicate 2 (RLU) | call |
| --- | --- | --- | --- | --- | --- |
| Or85d (Odorant receptor 85d) | DRSC16767 | -0.241 | 2.62e5 | 8.03e5 | inactive |
| Or85d (Odorant receptor 85d) | DRSC26656 | 2.72 | 9.07e5 | 1.04e6 | active |
| CG6574 | DRSC16070 | 1.25 | 3.68e5 | 8.66e5 | inactive |
| CG6574 | DRSC39694 | -0.932 | 3.93e5 | 4.11e5 | inactive |
| Gr94a (Gustatory receptor 94a) | DRSC13597 | -0.823 | 2.53e5 | 6.96e5 | inactive |
| Gr94a (Gustatory receptor 94a) | DRSC39563 | -1.1 | 3.75e5 | 4.06e5 | inactive |
| hid (head involution defective) | DRSC25461 | 1.04 | 9.21e5 | 1.04e6 | inactive |
| hid (head involution defective) | DRSC39717 | -0.85 | 3.93e5 | 4.22e5 | inactive |
| CG7333 | DRSC16229 | -0.232 | 3.14e5 | 6.73e5 | inactive |
| Zip42C.2 (Zinc/iron regulated transporter-related protein 42C.2) | DRSC05004 | 0.0457 | 6.96e5 | 5.51e5 | inactive |
| Zip42C.2 (Zinc/iron regulated transporter-related protein 42C.2) | DRSC39021 | 0.0675 | 5.21e5 | 6.50e5 | inactive |
| ppk13 (pickpocket 13) | DRSC02382 | 0.345 | 7.81e5 | 7.45e5 | inactive |
| OXA1L (OXA1L mitochondrial inner membrane protein) | DRSC09672 | -1.52 | 5.73e5 | 5.65e5 | active |
| OXA1L (OXA1L mitochondrial inner membrane protein) | DRSC29571 | -0.361 | 8.02e5 | 7.59e5 | inactive |
| disp (dispatched) | DRSC12376 | -0.157 | 9.53e5 | 8.01e5 | inactive |
| disp (dispatched) | DRSC39842 | 0.607 | 4.76e5 | 5.70e5 | inactive |
| CG1275 | DRSC08294 | -0.415 | 6.76e5 | 6.97e5 | inactive |
| Hmt-1 (Heavy metal tolerance factor 1) | DRSC15555 | -0.163 | 6.98e5 | 6.80e5 | inactive |
| Hmt-1 (Heavy metal tolerance factor 1) | DRSC39577 | 0.563 | 5.04e5 | 5.03e5 | inactive |
| CG32579 | DRSC19872 | 0.399 | 6.80e5 | 7.73e5 | inactive |
| CG32579 | DRSC39617 | -0.964 | 3.56e5 | 4.45e5 | inactive |
| Ir100a (Ionotropic receptor 100a) | DRSC25881 | 1.71 | 1.04e6 | 1.08e6 | active |
| Ir100a (Ionotropic receptor 100a) | DRSC39525 | 0.649 | 5.21e5 | 4.72e5 | inactive |
| ETHR | DRSC15915 | 0.275 | 3.36e5 | 7.29e5 | inactive |
| ETHR | DRSC29606 | 0.432 | 9.13e5 | 8.40e5 | inactive |
| Chs2 (Chitin synthase 2) | DRSC11830 | -0.0773 | 9.33e5 | 8.40e5 | inactive |
| Chs2 (Chitin synthase 2) | DRSC39425 | -0.678 | 3.78e5 | 4.37e5 | inactive |
| Gr59d (Gustatory receptor 59d) | DRSC22553 | 0.858 | 6.64e5 | 6.41e5 | inactive |
| Gr59d (Gustatory receptor 59d) | DRSC39897 | -0.652 | 4.98e5 | 5.62e5 | inactive |
| Osi2 (Osiris 2) | DRSC12174 | 0.335 | 9.50e5 | 9.30e5 | inactive |
| Osi2 (Osiris 2) | DRSC28374 | -1.3 | 7.09e5 | 6.28e5 | inactive |
| CG12446 | DRSC20618 | -0.167 | 7.01e5 | 7.49e5 | inactive |
| NijB (Ninjurin B) | DRSC09850 | 1.42 | 8.79e5 | 8.86e5 | inactive |
| NijB (Ninjurin B) | DRSC39587 | -0.889 | 3.92e5 | 4.18e5 | inactive |
| Pen (Pendulin) | DRSC03396 | 2.01 | 6.38e5 | 5.99e5 | active |
| Pen (Pendulin) | DRSC39160 | 0.622 | 6.33e5 | 6.31e5 | inactive |
| CG1662 | DRSC19754 | -0.862 | 6.02e5 | 6.31e5 | inactive |
| CG30340 | DRSC05167 | 1.35 | 7.18e5 | 1.07e6 | inactive |
| RYa-R (RYamide receptor) | DRSC16757 | -0.724 | 6.42e5 | 6.20e5 | inactive |
| Mpv17 (Mitochondrial inner membrane protein MPV17) | DRSC17198 | -1.23 | 6.43e5 | 6.87e5 | inactive |
| shakB (shaking B) | DRSC20585 | -0.675 | 6.66e5 | 6.73e5 | inactive |
| shakB (shaking B) | DRSC22817 | -1.18 | 5.27e5 | 4.31e5 | inactive |
| shakB (shaking B) | DRSC26262 | 0.413 | 9.16e5 | 8.87e5 | inactive |
| Nup44A (Nucleoporin at 44A) | DRSC07248 | 0.108 | 7.41e5 | 7.44e5 | inactive |
| Nup44A (Nucleoporin at 44A) | DRSC28141 | 2.52 | 1.07e6 | 1.22e6 | active |
| CG2938 | DRSC27919 | -0.524 | 9.00e5 | 8.92e5 | inactive |

Look-ups from the entries so far.
Result of shakB (shaking B) [DRSC26262] in “call”: inactive
disp (dispatched) [DRSC39842], ATP luminescence, replicate 2 (RLU) = 5.70e5
hid (head involution defective) [DRSC39717], ATP luminescence, replicate 1 (RLU) = 3.93e5
For “ATP luminescence, replicate 1 (RLU)”, Osi2 (Osiris 2) [DRSC12174] has 9.50e5
Value for NijB (Ninjurin B) [DRSC09850] under “ATP z-score, duplicate mean”: 1.42
Or85d (Odorant receptor 85d) [DRSC16767], ATP luminescence, replicate 2 (RLU) = 8.03e5
